Experimental data as given in publication doi:10.1101/2023.03.30.534706.

Target: T1, C. jejuni PpfC fused at the N-terminus to a Strep-tag (apo-PpfC-Strep) (C. jejuni NCTC 11168) (UniProt Q9PI08)
T1 sequence: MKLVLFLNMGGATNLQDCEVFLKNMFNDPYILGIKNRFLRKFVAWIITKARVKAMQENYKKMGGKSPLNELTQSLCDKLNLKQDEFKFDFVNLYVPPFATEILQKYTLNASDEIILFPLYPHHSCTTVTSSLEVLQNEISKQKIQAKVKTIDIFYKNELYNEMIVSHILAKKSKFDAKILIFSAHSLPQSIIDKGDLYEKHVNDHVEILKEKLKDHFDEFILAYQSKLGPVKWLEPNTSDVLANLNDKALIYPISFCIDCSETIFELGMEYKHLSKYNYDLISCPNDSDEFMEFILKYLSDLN
Assay: pull-down

C. jejuni CgdH2 linked at the C-terminus to a His-tag (apo-CgdH2-His) (from UniProt Q0PBE7)
binding: binds

These are yes or no findings as the source states them, for the method shown. A result given as binding can be weak or reduced; the word gives no strength. Tags and fused reporters may be left off the sequences shown.
